Assay results as given in US9976141B2 (Arrowhead Madison Inc., priority 2015, dated 2018).

Experiment: general procedure: Fmoc solid-phase peptide synthesis; 2-Cl-Trt resin preloaded with Fmoc-Proline-OH

RGD-PEGn-FCitFPro-TFP
step yield (purification step, on 257 mg injected crude): 70%

(diboc)RGD(OtBu)-APBA-PEGn-FCitFPro-TFP
step yield (late stage modification step): 92%
